Laboratory results reported in article PMC7753843.
These are yes or no findings as the source states them, for the method shown. Binding seen in cells or lysates may run through a third protein. Binding calls can cover weak binding; strength is not graded here.

B1: AFP, TNT system translation product (protein, UniProt P02771 1-609)
chain: MKWVESIFLIFLLNFTESRTLHRNEYGIASILDSYQCTAEISLADLATIFFAQFVQEATYKEVSKMVKDALTAIEKPTGDEQSSGCLENQLPAFLEELCHEKEILEKYGHSDCCSQSEEGRHNCFLAHKKPTPASIPLFQVPEPVTSCEAYEEDRETFMNKFIYEIARRHPFLYAPTILLWAARYDKIIPSCCKAENAVECFQTKAATVTKELRESSLLNQHACAVMKNFGTRTFQAITVTKLSQKFTKVNFTEIQKLVLDVAHVHEHCCRGDVLDCLQDGEKIMSYICSQQDTLSNKITECCKLTTLERGQCIIHAENDEKPEGLSPNLNRFLGDRDFNQFSSGEKNIFLASFVHEYSRRHPQLAVSVILRVAKGYQELLEKCFQTENPLECQDKGEEELQKYIQESQALAKRSCGLFQKLGEYYLQNAFLVAYTKKAPQLTSSELMAITRKMAATAATCCQLSEDKLLACGEGAADIIIGHLCIRHEMTPVNPGVGQCCTSSYANRRPCFSSLVVDETYVPPAFSDDKFIFHKDLCQAQGVALQTMKQEFLINLVKQKPQITEEQLEAVIADFSGLLEKCCQGQEQEVCFAEEGQKLISKTRAALGV
B2: AFP, endogenous in HCC tumour tissues with high serum AFP (protein, UniProt P02771 19-609)
chain: RTLHRNEYGIASILDSYQCTAEISLADLATIFFAQFVQEATYKEVSKMVKDALTAIEKPTGDEQSSGCLENQLPAFLEELCHEKEILEKYGHSDCCSQSEEGRHNCFLAHKKPTPASIPLFQVPEPVTSCEAYEEDRETFMNKFIYEIARRHPFLYAPTILLWAARYDKIIPSCCKAENAVECFQTKAATVTKELRESSLLNQHACAVMKNFGTRTFQAITVTKLSQKFTKVNFTEIQKLVLDVAHVHEHCCRGDVLDCLQDGEKIMSYICSQQDTLSNKITECCKLTTLERGQCIIHAENDEKPEGLSPNLNRFLGDRDFNQFSSGEKNIFLASFVHEYSRRHPQLAVSVILRVAKGYQELLEKCFQTENPLECQDKGEEELQKYIQESQALAKRSCGLFQKLGEYYLQNAFLVAYTKKAPQLTSSELMAITRKMAATAATCCQLSEDKLLACGEGAADIIIGHLCIRHEMTPVNPGVGQCCTSSYANRRPCFSSLVVDETYVPPAFSDDKFIFHKDLCQAQGVALQTMKQEFLINLVKQKPQITEEQLEAVIADFSGLLEKCCQGQEQEVCFAEEGQKLISKTRAALGV

Tests used:
GST‐RAR fusion protein = assay: pull-down; GST pull‐down: GST‐RAR fusion protein with TNT T7 translation products, detected by Western blotting; only the target purified
[1] = molecular target: retinoic acid receptor (RAR), endogenous in HCC tumour tissues (human (endogenous in HCC tumour tissue)); assay: co-IP; CoIP in clinical HCC tissue specimens (tumour tissues with high serum AFP)

Binder	binding (GST‐RAR fusion protein)	binding [1]
B1	binds	
B2		binds
